## Results from one PubChem assay

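Merkel cell carcinoma cell lines (MCC-26, WaGa, MKL-1, MKL-2) were scored for viability by CellTiter-Glo luminescence after 72 hours of compound exposure.
Dose-response series of 8 or 11 points, topping out at 44.8 µM.
The number is a fitted potency (AC50, nM) for loss of viability; a lower value means a more potent compound.
Calls follow curve shape: inconclusive marks small, poorly fitted or top-dose-only inhibition, while active requires a well-fitted curve with a large effect.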

Values are in nM.
Every entry below has the call inconclusive.
These entries are mostly ones the record files as inconclusive; other results of the assay are not listed here.
A potency from a partial, single-point or poor curve is only a rough figure.
Some entries filed as inconclusive have a full curve.
An entry listed twice with the same setting is a separate test.

structure,tested on / at,Potency (nM),remark
CCN(CC)CCCCNc1ncc2c(n1)N(C)C(=O)N(c1c(Cl)c(OC)cc(OC)c1Cl)C2,UISO,9350,"inhibitor, full curve"
C[C@]12CC[C@H]3[C@@H](CCC4=CC(=O)CC[C@@H]43)[C@@H]1CC[C@@H]2OC(=O)CCC1CCCCC1,UISO,14963,"inhibitor, single point"
C[C@]12CC[C@H]3[C@@H](CCC4=CC(=O)CC[C@@H]43)[C@@H]1CC[C@@H]2OC(=O)CCC1CCCCC1,MKL-2,13335,"inhibitor, partial curve"
C[C@@H]1CC[C@H]2[C@@H](C)C(=O)O[C@@H]3O[C@@]4(C)CC[C@H]1[C@]32OO4,UISO,10490,"inhibitor, partial curve"
C[C@@H]1CC[C@H]2[C@@H](C)C(=O)O[C@@H]3O[C@@]4(C)CC[C@H]1[C@]32OO4,WaGa,4176,"inhibitor, full curve, poor fit"
C=CC(=O)NCNC(=O)C=C,WaGa,30637,"inhibitor, single point"
C=CC(=O)NCNC(=O)C=C,MKL-2,13685,"inhibitor, partial curve, poor fit"
O=C(c1ccc(OCCN2CCCCC2)cc1)c1c(-c2ccc(O)cc2)sc2cc(O)ccc12,MKL-1,29855,"inhibitor, single point"
O=C(c1ccc(OCCN2CCCCC2)cc1)c1c(-c2ccc(O)cc2)sc2cc(O)ccc12,WaGa,33498,"inhibitor, single point"
CC(=O)N(O)CCCCCNC(=O)CCC(=O)N(O)CCCCCNC(=O)CCC(=O)N(O)CCCCCN,UISO,7499,"inhibitor, full curve"
CC(=O)N(O)CCCCCNC(=O)CCC(=O)N(O)CCCCCNC(=O)CCC(=O)N(O)CCCCCN,MCC-13,5309,"inhibitor, full curve"
CC(=O)N(O)CCCCCNC(=O)CCC(=O)N(O)CCCCCNC(=O)CCC(=O)N(O)CCCCCN,MKL-2,2661,"inhibitor, full curve"
CC(=O)N(O)CCCCCNC(=O)CCC(=O)N(O)CCCCCNC(=O)CCC(=O)N(O)CCCCCN,MCC-26,14963,"inhibitor, partial curve, poor fit"
Clc1ccc(Nc2nnc(Cc3ccncc3)c3ccccc23)cc1,MKL-1,26608,"inhibitor, single point"
Clc1ccc(Nc2nnc(Cc3ccncc3)c3ccccc23)cc1,WaGa,29855,"inhibitor, single point"
Clc1ccc(Nc2nnc(Cc3ccncc3)c3ccccc23)cc1,MKL-1,18654,"inhibitor, partial curve, poor fit"
Clc1ccc(Nc2nnc(Cc3ccncc3)c3ccccc23)cc1,UISO,33173,"inhibitor, single point"
Clc1ccc(Nc2nnc(Cc3ccncc3)c3ccccc23)cc1,WaGa,16626,"inhibitor, partial curve"
Oc1c(Cl)cc(Cl)c2cccnc12,MCC-13,29855,"inhibitor, single point"
Oc1c(Cl)cc(Cl)c2cccnc12,WaGa,23484,"inhibitor, single point"
Oc1c(Cl)cc(Cl)c2cccnc12,MKL-2,20930,"inhibitor, partial curve"
CCOC(=O)[C@H](CCc1ccccc1)N[C@@H](C)C(=O)N1Cc2ccccc2C[C@H]1C(=O)O,MCC-26,29855,"inhibitor, single point"
Cc1cc(OCCOCC[N+](C)(C)Cc2ccccc2)ccc1C(C)(C)CC(C)(C)C,MCC-26,26608,"inhibitor, single point"
Cc1cc(OCCOCC[N+](C)(C)Cc2ccccc2)ccc1C(C)(C)CC(C)(C)C,MKL-1,944.1,"inhibitor, full curve, poor fit"
COC[C@H]1OC(=O)c2coc3c2[C@@]1(C)C1=C(C3=O)[C@@H]2CC[C@H](O)[C@@]2(C)C[C@@H]1OC(C)=O,UISO,16626,"inhibitor, partial curve"
CN1CCC(N(Cc2ccccc2)c2ccccc2)CC1,MKL-2,23715,"inhibitor, single point"
N#CCNC(=O)c1ccc(-c2ccnc(Nc3ccc(N4CCOCC4)cc3)n2)cc1,MKL-1,33173,"inhibitor, single point"
N#CCNC(=O)c1ccc(-c2ccnc(Nc3ccc(N4CCOCC4)cc3)n2)cc1,WaGa,18654,"inhibitor, partial curve"
N#CCNC(=O)c1ccc(-c2ccnc(Nc3ccc(N4CCOCC4)cc3)n2)cc1,MCC-13,16626,"inhibitor, partial curve"
N#CCNC(=O)c1ccc(-c2ccnc(Nc3ccc(N4CCOCC4)cc3)n2)cc1,MCC-26,16626,"inhibitor, partial curve"
N#CCNC(=O)c1ccc(-c2ccnc(Nc3ccc(N4CCOCC4)cc3)n2)cc1,MKL-2,37221,"inhibitor, single point"
C=CC(=O)Nc1cccc(Nc2nc(NC3CCC(N(C)C)CC3)nc3c2ncn3C(C)C)c1 (centres undefined),MCC-13,16626,"inhibitor, partial curve"
C[C@](O)(CS(=O)(=O)c1ccc(F)cc1)C(=O)Nc1ccc(C#N)c(C(F)(F)F)c1,UISO,23484,"inhibitor, single point"
CCCCC/C=C\C/C=C\C/C=C\C/C=C\CCCC(=O)NCC(=O)O,MKL-2,9441,"inhibitor, partial curve, poor fit"
O=C1NC(=O)[C@@H](c2cn3c4c(cccc24)CCC3)[C@H]1c1c[nH]c2ccccc12,MKL-1,2348,"inhibitor, full curve"
O=C1NC(=O)[C@@H](c2cn3c4c(cccc24)CCC3)[C@H]1c1c[nH]c2ccccc12,MCC-26,5258,"inhibitor, full curve"

For reference, 4 entries once more:

structure	tested on / at	Potency (nM)	remark
C[C@]12CC[C@H]3[C@@H](CCC4=CC(=O)CC[C@@H]43)[C@@H]1CC[C@@H]2OC(=O)CCC1CCCCC1	MKL-2	13335	inhibitor, partial curve
CCN(CC)CCCCNc1ncc2c(n1)N(C)C(=O)N(c1c(Cl)c(OC)cc(OC)c1Cl)C2	UISO	9350	inhibitor, full curve
Cc1cc(OCCOCC[N+](C)(C)Cc2ccccc2)ccc1C(C)(C)CC(C)(C)C	MKL-1	944.1	inhibitor, full curve, poor fit
Clc1ccc(Nc2nnc(Cc3ccncc3)c3ccccc23)cc1	MKL-1	26608	inhibitor, single point

Source: PubChem BioAssay AID1296009 (NCATS, 2018).